The list shows a part of the results. Single values are uncertain here, since repeats match poorly.
System: MDA-MB-468
Experiment: phospho-S6 immunofluorescence (DAPI-normalised), per-plate z-score; higher = higher phospho-S6 signal (less pathway suppression)
Details: 24 h
Protocol: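 GPCR-targeted compound library (MedChemExpress HY-L006) tested on MDA-MB-468 PTEN-null TNBC cells in 384-well plates at 0.1, 1 or 10 uM, combined with vehicle, GDC0941 450 nM or lapatinib 1 uM, for 24 h. Phospho-S6 (S240/244) immunofluorescence normalised to DAPI and expressed as a per-plate z-score; values are the mean of biological triplicates.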

[1] = compound 0.1 µM, co-treatment: GDC0941 450 nM
[2] = compound 0.1 µM, co-treatment: lapatinib 1 uM
[3] = compound 0.1 µM, co-treatment: vehicle
[4] = compound 1 µM, co-treatment: GDC0941 450 nM
[5] = compound 1 µM, co-treatment: lapatinib 1 uM
[6] = compound 1 µM, co-treatment: vehicle
[7] = compound 10 µM, co-treatment: GDC0941 450 nM
[8] = compound 10 µM, co-treatment: lapatinib 1 uM
[9] = compound 10 µM, co-treatment: vehicle

Row | Structure (SMILES) | phospho-S6 immunofluorescence (z-score) [1] | phospho-S6 immunofluorescence (z-score) [2] | phospho-S6 immunofluorescence (z-score) [3] | phospho-S6 immunofluorescence (z-score) [4] | phospho-S6 immunofluorescence (z-score) [5] | phospho-S6 immunofluorescence (z-score) [6] | phospho-S6 immunofluorescence (z-score) [7] | phospho-S6 immunofluorescence (z-score) [8] | phospho-S6 immunofluorescence (z-score) [9]
1 | O=C(O[C@H]1C[N+]2(CCCOc3ccccc3)CCC1CC2)C(O)(c1cccs1)c1cccs1 [Aclidinium (Bromide)] | -0.5 | -0.88 | -1.77 | 0.6 | 0.62 | -0.71 | 0.75 | 1.09 | -0.87
2 | CC(C)(C)NCC(O)c1ccc(O)cc1Cl (stereo not given) | 0.51 | 1.28 | 0.66 | 0.73 | 1.8 | -0.05 | 0.77 | 0.7 | 0.14
3 | COc1ccc2c(c1OC)CN1CCc3cc4c(cc3C1C2)OCO4 (stereo not given) [Tetrahydroberberine] | 0.03 | -0.11 | -0.32 | 1.13 | -0.03 | -0.6 | -0.04 | -1.09 | -0.52
4 | CN1CCC(c2c[nH]c3ccc(O)cc23)CC1 | -0.33 | 0.66 | -0.63 | 0.25 | 0.72 | -0.52 | 0.22 | 0.55 | 0.06
5 | CC(C)C[C@H](NC(=O)[C@H](Cc1ccccc1)NC(=O)CNC(=O)[C@@H](C)NC(=O)[C@@H](N)Cc1ccc(O)cc1)C(=O)O [[D-Ala2]leucine-enkephalin] | 1.7 | -0.37 | 1.67 | 0.16 | 0.5 | 0.38 | -0.29 | 0.01 | 1.34
